Experimental data taken from PubChem BioAssay AID2810 (NMMLSC, 2010).
Some of the results follow. These are further read-outs of the screen, such as a control signal, another cell line or another target. No call is given for them.

Assay: modulators of CD8 T cell-vesicle binding, confirmation, cherry-picked primary hits, two concentrations (AID 2810);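 note: lower values mean blocking of vesicle binding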;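 for percent response (vesicle binding): ratio of mean FL2 vesicle stain of CD8+ cells to that row's control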
Details: 2C CD8+ T cell-vesicle binding, flow cytometry; for double positive events: CD8+/vesicle+ events
[1] = at 15.4 µM, stronger effect = lower value

| Compound | double positive events (at 7.7 µM) [%] | double positive events [1] [%] | percent response (vesicle binding) (at 7.7 µM) [%] |
| --- | --- | --- | --- |
| CCn1nccc1C(=O)Nc1cc(Cl)cc(Cl)c1 | 6 | 18.5 | 120 |
| O=S(=O)(Cc1ccc(Cl)cc1)NCC1CCCO1 (stereo unspecified) | 31.6 | 10.5 | 411 |
| CC(C)(C)OC(=O)N[C@H](C(=O)OC(C)(C)C)c1ccc2c(c1)OCO2 | 27.9 | 6.3 | 168 |
| Cc1cc(C)n(C(=O)Cc2cn3ccsc3n2)n1 | 38.2 | 18.2 | 282 |
| O=C(CSc1ccc(-c2cccs2)nn1)N1CCCCCC1 | 21.4 | 29.4 | 211 |
| CC(NC(=O)COC(=O)C1CC2CCCC(C1)C2=O)c1ccccc1 (stereo unspecified) | 10.8 | 10.4 | 274 |
| O=C(Cc1ccc(S(=O)(=O)N2CCOCC2)s1)Nc1ccc(S(=O)(=O)N2CCCCC2)cc1 | 24.7 | 33.7 | 230 |
| CN(Cc1ccccc1)C(=O)c1nc[nH]c1C(=O)N1CCN(c2ccccc2)CC1 | 16.6 | 27.9 | 122 |
| CSc1nc2cc(C)nn2c(-c2ccccc2Cl)c1C#N | 16.8 | 15.5 | 412 |
| Cn1c(=O)oc2cc(S(=O)(=O)NCc3ccccc3)ccc21 | 28.2 | 10.3 | 269 |
| COc1ccc(NS(=O)(=O)c2ccc(-c3ccccn3)s2)cc1 | 10.4 | 30.6 | 439 |
| O=C(NC1CCCC1)C1CCCN1C(=O)Nc1ccc(Cl)cc1 (stereo unspecified) | 17.3 | 13 | 225 |
| CN(CC(=O)NCc1ccc2c(c1)OCO2)CC(=O)Nc1ccc(F)c(F)c1F | 10.4 | 22 | 126 |
| CCOc1ccc(NC(=O)CN(C)C(=O)c2ccc(N3CCOCC3)c([N+](=O)[O-])c2)cc1OCC | 18.2 | 10.1 | 152 |
| Nn1c(SCC(=O)Nc2c(F)cc(F)cc2Br)nnc1C1CCCCC1 | 18.2 | 6.6 | 162 |
| CC(OC(=O)C1CC1)C(=O)Nc1cc(Cl)cc(Cl)c1 (stereo unspecified) | 39.8 | 23 | 280 |
| COc1ccc(OC)c(/C=C/C(=O)Nc2cccc(S(=O)(=O)NC3=NCCCCC3)c2)c1 | 16.3 | 13 | 140 |
| O=C(c1cc(-c2ccncc2)nc2ccccc12)N1CCN(c2ncccn2)CC1 | 13.2 | 30.8 | 202 |
| CCCCOc1ccc(C(=O)NCC(=O)N2CCN(C(=O)c3ccco3)CC2)cc1 | 9.9 | 24.1 | 252 |
| O=C(C1CCN(S(=O)(=O)c2cnc[nH]2)CC1)N1CCN(c2ncccn2)CC1 | 10 | 42.9 | 303 |
| O=C(CNS(=O)(=O)c1ccc(Cl)c(C(F)(F)F)c1)NC1CCCCCC1 | 40.1 | 31 | 221 |
| CCCCOC(=O)c1ccc(NC(=O)C(=O)NCc2ccncc2)cc1 | 20.5 | 27.2 | 192 |
| Cc1cc(C)c2c(n1)sc1c(-c3ccccc3)c(C#N)c(N)nc12 | 9.7 | 23.9 | 183 |
| COc1ccc(CN(C)C(=O)CNC(=O)c2cccs2)c(OC)c1 | 9.5 | 26.5 | 77.5 |
| CN(c1ccccc1)S(=O)(=O)c1cccc(NC(=O)c2cccc(C#N)c2)c1 | 35.2 | 26.7 | 383 |
| COc1ccc(C(=O)NCC(O)COc2ccc(C(C)(C)C)cc2)cc1[N+](=O)[O-] (stereo unspecified) | 23.1 | 11.7 | 183 |

Record cards (already shown):
CCCCOC(=O)c1ccc(NC(=O)C(=O)NCc2ccncc2)cc1 in the list: double positive events (at 7.7 µM) [%]: 20.5; double positive events [1] [%]: 27.2; percent response (vesicle binding) (at 7.7 µM) [%]: 192
CCOc1ccc(NC(=O)CN(C)C(=O)c2ccc(N3CCOCC3)c([N+](=O)[O-])c2)cc1OCC in the list: double positive events (at 7.7 µM) [%]: 18.2; double positive events [1] [%]: 10.1; percent response (vesicle binding) (at 7.7 µM) [%]: 152
O=C(CSc1ccc(-c2cccs2)nn1)N1CCCCCC1 in the list: double positive events (at 7.7 µM) [%]: 21.4; double positive events [1] [%]: 29.4; percent response (vesicle binding) (at 7.7 µM) [%]: 211

Continued.

| Compound | double positive events (at 7.7 µM) [%] | double positive events [1] [%] | percent response (vesicle binding) (at 7.7 µM) [%] |
| --- | --- | --- | --- |
| CCOc1ccccc1N1CCN(C(=O)c2ccc3[nH]c(C)c(C)c3c2)CC1 | 25.6 | 17.4 | 277 |
| CC1CCc2c(C(=O)Nc3ccc(OC(F)(F)F)cc3)csc2C1 (stereo unspecified) | 33.5 | 20.5 | 215 |
| Cc1c(OCC(=O)NC(Cc2ccc(Cl)cc2)C(=O)O)ccc2c(-c3ccccc3)cc(=O)oc12 (stereo unspecified) | 11.8 | 8.2 | 158 |
| COCCCn1c(=O)c2ccccc2n(Cc2ccc(C)cc2)c1=O | 8.9 | 23 | 240 |
| CC1CCCCC1NC(=O)CSc1nnc(N)s1 (stereo unspecified) | 32.6 | 30.5 | 214 |
| Cc1ccc(Cn2c([N+](=O)[O-])cnc2C)cc1 | 10.7 | 31.2 | 283 |
| Cc1ccc2c(Cl)cc(Cl)c(OCC(=O)OCC(=O)Nc3ccc(C#N)cc3)c2n1 | 31.8 | 1.1 | 462 |
| Cc1cc([N+](=O)[O-])cc2c1NC(=O)C2(O)N1CCCCCC1 (stereo unspecified) | 21.7 | 15 | 132 |
| CC(C)(C)Nc1nc2nonc2nc1NC(C)(C)C | 8 | 6.1 | 322 |
| Cc1nc(N2CCN(S(=O)(=O)c3ccccc3C#N)CC2)c2c(-c3ccccc3)csc2n1 | 25 | 22.6 | 204 |
| Cc1c(OCC(=O)NCc2ccccn2)ccc2c(-c3ccccc3)cc(=O)oc12 | 7.2 | 29.8 | 130 |
| CNC(=O)c1cc(C(=O)c2ccc(F)cc2C(F)(F)F)c[nH]1 | 23.5 | 17 | 212 |
| C=CCN=C1S/C(=C\c2ccc(Cl)cc2)C(=O)N1CC=C | 10.4 | 16.4 | 251 |
| COc1ccc(Oc2ccc(N/C=C3\CCCC3=O)cc2)cc1 | 10.4 | 8.8 | 429 |
| CC(C)=CC(=O)OCC(=O)NC1CCCc2ccccc21 (stereo unspecified) | 19.9 | 20.7 | 546 |
| CCOC(=O)CCNC(=O)Nc1ccc2nc(C)n(Cc3cccc(Cl)c3)c(=O)c2c1 | 10 | 23.8 | 287 |
| Cc1ccc(C(=O)Nc2ccc(N3CCN(S(C)(=O)=O)CC3)cc2)cc1 | 8.9 | 25.8 | 297 |
| COc1ccc(S(=O)(=O)N2CCCCC2)cc1NC(=O)c1cnc(C)cn1 | 15.3 | 6.4 | 75.9 |
| Cc1c(C(=O)NCc2ccco2)sc2nc(-c3ccccc3)cn12 | 11.5 | 22.2 | 204 |
| COc1ccc(/C=C2\SC(=S)N(CCC(=O)N3CCOCC3)C2=O)cc1 | 8.6 | 22.8 | 156 |
| CN(C)CCNC(=O)C(=O)Nc1ccc2c(c1)N(S(=O)(=O)c1cccs1)CCC2 | 11.6 | 31.8 | 405 |
| Cn1c(=O)cc(SCC(=O)NCCC2=CCCCC2)c2ccccc21 | 11.1 | 31.2 | 101 |
| Cc1nn(Cc2ccc(Cl)cc2)c(C)c1N | 10.5 | 36.2 | 440 |
| Cc1nnnn1CC(=O)Nc1cccc([N+](=O)[O-])c1 | 24.2 | 11.2 | 356 |
| CN1CCN(c2nc(-c3ccccc3)ncc2S(C)(=O)=O)CC1 | 26.4 | 13.9 | 104 |
| O=C(OCC(=O)N1CCN(C(=O)c2ccco2)CC1)c1ccccc1Cc1ccccc1 | 6.5 | 29.4 | 106 |
